# Test results from the supplement of paper PMC10849652.
# Chains of the proteins cited; added tags and fusions are not shown. Lines headed by an entry give the natural chain unless they say otherwise; changes in a name come on top.
# UniProt Q96ER3: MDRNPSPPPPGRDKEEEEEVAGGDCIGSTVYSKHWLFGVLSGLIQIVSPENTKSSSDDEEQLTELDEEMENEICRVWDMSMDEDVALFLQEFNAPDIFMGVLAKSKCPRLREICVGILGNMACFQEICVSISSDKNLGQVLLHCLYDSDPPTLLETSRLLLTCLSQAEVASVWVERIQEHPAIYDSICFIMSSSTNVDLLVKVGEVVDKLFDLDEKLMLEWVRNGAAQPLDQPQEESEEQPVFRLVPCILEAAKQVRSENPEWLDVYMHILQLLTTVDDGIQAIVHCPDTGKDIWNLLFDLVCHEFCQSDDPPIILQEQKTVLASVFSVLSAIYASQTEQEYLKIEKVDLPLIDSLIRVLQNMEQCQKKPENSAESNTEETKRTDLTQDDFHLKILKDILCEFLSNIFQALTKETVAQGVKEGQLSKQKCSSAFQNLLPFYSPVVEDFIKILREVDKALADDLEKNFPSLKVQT
# UniProt O00560: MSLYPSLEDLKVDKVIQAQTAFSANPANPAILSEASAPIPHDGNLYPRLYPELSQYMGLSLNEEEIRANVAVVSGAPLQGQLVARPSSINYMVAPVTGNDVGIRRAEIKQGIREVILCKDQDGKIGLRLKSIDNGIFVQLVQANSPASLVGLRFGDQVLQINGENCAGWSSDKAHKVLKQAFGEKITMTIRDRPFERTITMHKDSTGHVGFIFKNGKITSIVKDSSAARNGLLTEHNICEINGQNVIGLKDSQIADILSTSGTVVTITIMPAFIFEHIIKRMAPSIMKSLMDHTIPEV
# UniProt Q9NX18: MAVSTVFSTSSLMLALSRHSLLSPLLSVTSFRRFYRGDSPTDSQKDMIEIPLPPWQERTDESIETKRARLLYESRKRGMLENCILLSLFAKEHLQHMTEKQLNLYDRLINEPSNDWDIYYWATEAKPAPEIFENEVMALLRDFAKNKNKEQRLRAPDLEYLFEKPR
# UniProt O15127: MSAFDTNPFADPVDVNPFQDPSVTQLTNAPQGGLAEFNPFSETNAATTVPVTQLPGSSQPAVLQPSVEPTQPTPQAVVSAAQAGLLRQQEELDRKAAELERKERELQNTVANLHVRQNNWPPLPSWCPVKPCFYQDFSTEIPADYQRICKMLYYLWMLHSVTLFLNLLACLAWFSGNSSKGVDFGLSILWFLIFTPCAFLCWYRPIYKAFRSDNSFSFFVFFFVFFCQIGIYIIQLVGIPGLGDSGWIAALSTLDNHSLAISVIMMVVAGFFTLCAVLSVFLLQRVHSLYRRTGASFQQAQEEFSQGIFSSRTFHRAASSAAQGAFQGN
# UniProt Q9NSI8: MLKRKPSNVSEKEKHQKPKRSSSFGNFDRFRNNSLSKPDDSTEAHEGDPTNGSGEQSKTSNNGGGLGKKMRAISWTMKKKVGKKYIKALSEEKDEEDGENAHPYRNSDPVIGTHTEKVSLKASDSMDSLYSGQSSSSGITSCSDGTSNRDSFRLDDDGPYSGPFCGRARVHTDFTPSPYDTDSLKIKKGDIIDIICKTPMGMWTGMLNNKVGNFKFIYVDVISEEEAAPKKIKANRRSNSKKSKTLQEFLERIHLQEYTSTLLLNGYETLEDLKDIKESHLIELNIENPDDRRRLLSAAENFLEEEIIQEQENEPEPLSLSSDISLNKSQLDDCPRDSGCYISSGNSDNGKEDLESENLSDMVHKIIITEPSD
# UniProt Q8IZE3: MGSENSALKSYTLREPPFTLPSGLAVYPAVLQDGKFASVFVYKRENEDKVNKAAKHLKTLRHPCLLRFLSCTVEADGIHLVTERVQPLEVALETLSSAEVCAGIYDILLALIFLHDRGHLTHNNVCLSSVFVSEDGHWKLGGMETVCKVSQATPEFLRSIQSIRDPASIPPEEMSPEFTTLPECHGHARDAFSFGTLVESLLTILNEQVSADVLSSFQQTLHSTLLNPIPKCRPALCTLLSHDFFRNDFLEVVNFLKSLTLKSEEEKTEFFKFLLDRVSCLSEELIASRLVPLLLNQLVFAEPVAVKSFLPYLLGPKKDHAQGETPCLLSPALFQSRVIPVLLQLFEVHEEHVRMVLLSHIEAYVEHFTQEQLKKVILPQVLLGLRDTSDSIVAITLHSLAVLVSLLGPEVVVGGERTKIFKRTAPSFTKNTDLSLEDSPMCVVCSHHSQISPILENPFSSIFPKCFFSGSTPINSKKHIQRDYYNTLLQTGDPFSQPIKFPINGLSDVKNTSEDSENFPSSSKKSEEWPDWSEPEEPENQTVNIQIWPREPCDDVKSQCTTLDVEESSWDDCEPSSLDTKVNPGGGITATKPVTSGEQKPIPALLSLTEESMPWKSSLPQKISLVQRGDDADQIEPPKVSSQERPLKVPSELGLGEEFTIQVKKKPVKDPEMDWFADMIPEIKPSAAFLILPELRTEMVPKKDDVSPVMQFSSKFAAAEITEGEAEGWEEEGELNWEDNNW
# UniProt Q9UPN6: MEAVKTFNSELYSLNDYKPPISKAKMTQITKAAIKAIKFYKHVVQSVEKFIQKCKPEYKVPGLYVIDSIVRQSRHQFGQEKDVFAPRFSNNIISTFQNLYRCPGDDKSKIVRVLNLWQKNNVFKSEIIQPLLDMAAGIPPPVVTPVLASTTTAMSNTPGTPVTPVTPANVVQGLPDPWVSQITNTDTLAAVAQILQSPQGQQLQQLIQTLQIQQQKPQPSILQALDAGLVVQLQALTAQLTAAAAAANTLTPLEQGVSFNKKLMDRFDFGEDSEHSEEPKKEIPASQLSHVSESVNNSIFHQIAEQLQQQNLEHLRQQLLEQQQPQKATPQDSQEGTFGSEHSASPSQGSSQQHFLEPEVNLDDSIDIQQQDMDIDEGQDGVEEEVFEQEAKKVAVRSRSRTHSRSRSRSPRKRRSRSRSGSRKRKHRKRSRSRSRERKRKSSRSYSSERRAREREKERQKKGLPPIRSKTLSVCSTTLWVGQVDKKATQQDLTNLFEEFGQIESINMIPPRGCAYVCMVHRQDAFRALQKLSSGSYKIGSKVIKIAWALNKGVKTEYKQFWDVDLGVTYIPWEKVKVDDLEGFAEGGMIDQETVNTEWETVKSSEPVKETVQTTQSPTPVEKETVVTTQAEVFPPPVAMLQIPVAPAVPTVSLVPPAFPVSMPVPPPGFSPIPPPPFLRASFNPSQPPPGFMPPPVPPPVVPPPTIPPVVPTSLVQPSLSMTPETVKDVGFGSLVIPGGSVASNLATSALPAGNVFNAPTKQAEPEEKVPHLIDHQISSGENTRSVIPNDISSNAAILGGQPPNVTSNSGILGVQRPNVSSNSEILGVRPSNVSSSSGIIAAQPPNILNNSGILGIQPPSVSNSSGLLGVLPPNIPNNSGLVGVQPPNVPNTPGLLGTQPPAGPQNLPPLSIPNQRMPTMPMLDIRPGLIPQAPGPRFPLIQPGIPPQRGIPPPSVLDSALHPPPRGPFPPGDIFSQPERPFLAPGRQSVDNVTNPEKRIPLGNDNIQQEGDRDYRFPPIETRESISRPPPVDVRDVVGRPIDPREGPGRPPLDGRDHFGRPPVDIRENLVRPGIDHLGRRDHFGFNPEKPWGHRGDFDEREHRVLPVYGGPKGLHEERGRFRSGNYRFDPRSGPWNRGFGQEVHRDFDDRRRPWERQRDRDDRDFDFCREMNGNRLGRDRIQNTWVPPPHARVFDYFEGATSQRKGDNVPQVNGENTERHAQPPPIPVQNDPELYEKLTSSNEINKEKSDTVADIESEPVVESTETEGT
# UniProt Q7L4I2: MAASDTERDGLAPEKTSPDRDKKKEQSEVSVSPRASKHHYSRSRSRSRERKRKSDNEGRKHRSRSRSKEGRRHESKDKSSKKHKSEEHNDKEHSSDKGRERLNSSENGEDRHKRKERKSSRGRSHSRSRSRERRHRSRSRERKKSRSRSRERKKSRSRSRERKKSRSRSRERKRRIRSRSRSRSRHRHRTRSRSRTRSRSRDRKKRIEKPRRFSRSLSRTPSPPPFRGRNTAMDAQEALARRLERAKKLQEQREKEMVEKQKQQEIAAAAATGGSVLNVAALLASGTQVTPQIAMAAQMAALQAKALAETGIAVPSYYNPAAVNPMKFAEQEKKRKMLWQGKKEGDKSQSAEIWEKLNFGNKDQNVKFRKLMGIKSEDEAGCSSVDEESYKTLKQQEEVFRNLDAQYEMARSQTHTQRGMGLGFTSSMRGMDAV
# UniProt Q9BY42: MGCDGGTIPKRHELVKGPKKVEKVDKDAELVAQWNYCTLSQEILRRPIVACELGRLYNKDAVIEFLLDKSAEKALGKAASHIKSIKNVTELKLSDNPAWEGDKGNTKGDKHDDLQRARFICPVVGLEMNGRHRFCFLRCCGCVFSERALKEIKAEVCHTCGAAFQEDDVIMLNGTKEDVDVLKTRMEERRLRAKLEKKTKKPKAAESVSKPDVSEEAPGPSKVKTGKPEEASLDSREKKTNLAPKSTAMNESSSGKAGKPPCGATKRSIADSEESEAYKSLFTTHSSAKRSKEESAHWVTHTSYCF
# UniProt Q8NBX0: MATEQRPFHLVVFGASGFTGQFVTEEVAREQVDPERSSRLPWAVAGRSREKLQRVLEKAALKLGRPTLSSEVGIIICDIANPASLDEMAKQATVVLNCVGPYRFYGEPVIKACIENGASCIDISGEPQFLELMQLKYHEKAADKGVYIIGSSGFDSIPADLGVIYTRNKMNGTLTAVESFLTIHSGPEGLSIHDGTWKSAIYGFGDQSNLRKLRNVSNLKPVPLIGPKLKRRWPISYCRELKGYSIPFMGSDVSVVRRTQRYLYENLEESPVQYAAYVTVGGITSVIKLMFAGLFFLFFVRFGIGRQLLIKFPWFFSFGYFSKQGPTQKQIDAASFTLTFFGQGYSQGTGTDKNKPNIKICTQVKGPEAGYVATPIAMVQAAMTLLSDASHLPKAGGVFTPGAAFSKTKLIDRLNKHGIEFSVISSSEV
# UniProt Q8WXD2: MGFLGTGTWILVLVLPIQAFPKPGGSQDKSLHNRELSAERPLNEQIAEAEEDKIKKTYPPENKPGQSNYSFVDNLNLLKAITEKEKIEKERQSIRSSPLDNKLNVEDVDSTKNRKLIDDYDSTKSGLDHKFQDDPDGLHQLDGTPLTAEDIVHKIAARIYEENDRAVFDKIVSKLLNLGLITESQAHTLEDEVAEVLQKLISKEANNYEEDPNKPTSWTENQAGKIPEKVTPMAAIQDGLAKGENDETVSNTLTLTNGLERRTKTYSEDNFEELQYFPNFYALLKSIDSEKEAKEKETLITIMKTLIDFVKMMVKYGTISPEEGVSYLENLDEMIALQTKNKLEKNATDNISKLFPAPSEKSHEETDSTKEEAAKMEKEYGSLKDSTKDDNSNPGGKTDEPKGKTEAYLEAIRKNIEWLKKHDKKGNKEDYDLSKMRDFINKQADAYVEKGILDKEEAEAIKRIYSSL
# UniProt O94885: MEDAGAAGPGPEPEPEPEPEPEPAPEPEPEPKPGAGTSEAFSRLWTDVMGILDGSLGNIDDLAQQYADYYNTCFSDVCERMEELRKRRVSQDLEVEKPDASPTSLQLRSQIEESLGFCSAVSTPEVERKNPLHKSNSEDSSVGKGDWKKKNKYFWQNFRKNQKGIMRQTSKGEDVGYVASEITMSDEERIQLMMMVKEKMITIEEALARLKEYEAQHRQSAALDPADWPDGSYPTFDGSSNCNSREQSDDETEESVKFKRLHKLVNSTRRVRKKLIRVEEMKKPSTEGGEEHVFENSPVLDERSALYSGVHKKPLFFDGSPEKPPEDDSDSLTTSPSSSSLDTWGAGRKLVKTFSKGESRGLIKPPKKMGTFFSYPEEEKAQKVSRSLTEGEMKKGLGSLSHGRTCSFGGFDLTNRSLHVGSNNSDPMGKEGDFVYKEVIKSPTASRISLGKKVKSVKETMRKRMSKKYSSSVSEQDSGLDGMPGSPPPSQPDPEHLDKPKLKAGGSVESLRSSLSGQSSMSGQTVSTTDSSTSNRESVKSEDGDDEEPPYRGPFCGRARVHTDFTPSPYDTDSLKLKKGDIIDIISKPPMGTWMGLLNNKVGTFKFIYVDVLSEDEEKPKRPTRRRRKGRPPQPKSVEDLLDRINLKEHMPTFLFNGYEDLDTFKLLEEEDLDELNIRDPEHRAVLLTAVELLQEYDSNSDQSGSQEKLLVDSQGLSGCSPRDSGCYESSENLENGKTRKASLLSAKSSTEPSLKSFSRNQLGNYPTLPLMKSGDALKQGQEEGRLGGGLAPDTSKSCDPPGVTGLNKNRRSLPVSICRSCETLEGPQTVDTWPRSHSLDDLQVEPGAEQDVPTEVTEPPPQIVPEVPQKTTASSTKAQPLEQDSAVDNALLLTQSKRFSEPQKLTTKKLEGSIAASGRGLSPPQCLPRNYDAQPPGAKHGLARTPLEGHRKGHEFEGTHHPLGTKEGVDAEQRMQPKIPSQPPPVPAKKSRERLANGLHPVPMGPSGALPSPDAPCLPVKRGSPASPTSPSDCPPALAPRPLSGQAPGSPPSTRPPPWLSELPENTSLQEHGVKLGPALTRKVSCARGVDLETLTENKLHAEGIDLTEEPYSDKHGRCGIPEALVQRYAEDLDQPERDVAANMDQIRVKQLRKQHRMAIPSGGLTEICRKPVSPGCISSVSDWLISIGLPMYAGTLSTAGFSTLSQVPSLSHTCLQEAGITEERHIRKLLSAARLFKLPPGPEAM
# Some of the results follow.
# Compound: CN1CCC(CNc2ccc3ncc(-c4cccc(OC(F)(F)F)c4)n3n2)CC1
# Test: log2 fold change, soluble protein after heating vs DMSO (PISA); higher = thermal stabilisation; K562 cells, 10 uM, 30 min; active = over 0.2 and 3.5 SD of the protein, either way, in both replicates (recomputed)
# Method in brief: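 K562 cells at 2×10^6 cells/mL were exposed to 10 μM compound for 30 min, then aliquots were heated for 3 min across 48°C-58°C, pooled, and extracted in PBS containing 0.5% NP-40 at 4°C. The supernatant after 21,000xg for 90 min was taken as soluble protein and measured by TMTpro 16plex LC-MS/MS with channel sums equalised. Thermal stability is reported relative to control samples, with values from duplicates. Fold changes are given on a log2 scale.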
row,Target,log2 fold change
1,S100A10 (UniProt P60903),inactive: -0.026
2,SAAL1 (UniProt Q96ER3),inactive: -0.219
3,SDCBP isoform 2 (UniProt O00560),inactive: -0.208
4,RUFY1 (UniProt Q96T51),inactive: -0.058
5,RUNX1 isoform 8 (UniProt Q01196),inactive: -0.102
6,SACM1L (UniProt Q9NTJ5),inactive: 0.031
7,"SART3, A0A499FI31",inactive: -0.211
8,SCD (UniProt O00767),inactive: 0.095
9,SDHAF2 (UniProt Q9NX18),inactive: 0.045
10,SCAMP2 (UniProt O15127),inactive: -0.1
11,SAMSN1 isoform 3 (UniProt Q9NSI8),active: -0.253
12,SEC24A (UniProt O95486),inactive: -0.029
13,SCYL3 isoform 2 (UniProt Q8IZE3),inactive: -0.015
14,RRP36 (UniProt Q96EU6),inactive: 0.288
15,SCPEP1 (UniProt Q9HB40),active: -0.846
16,SEC31A (UniProt O94979),inactive: -0.11
17,SEC16A isoform 5 (UniProt O15027),inactive: -0.047
18,SCAF8 isoform 2 (UniProt Q9UPN6),inactive: 0.015

# 2 entries drawn at random from those above, as already listed:
row,Target,log2 fold change
4,RUFY1 (UniProt Q96T51),inactive: -0.058
3,SDCBP isoform 2 (UniProt O00560),inactive: -0.208

# Going on with the list.

row,Target,log2 fold change
1,RUFY3 isoform 3 (UniProt Q7L099),inactive: -0.048
2,"SDHB, A0A087WWT1",inactive: 0
3,RSRC2 (UniProt Q7L4I2),inactive: -0.025
4,SAFB2 (UniProt Q14151),inactive: 0.23
5,RSL1D1 (UniProt O76021),inactive: 0.591
6,RSPRY1 (UniProt Q96DX4),active: 0.219
7,SDHC (UniProt Q99643),inactive: 0.023
8,RTF2 (UniProt Q9BY42),inactive: 0.161
9,SEC23IP (UniProt Q9Y6Y8),inactive: -0.133
10,SCAF11 (UniProt Q99590),inactive: 0.25
11,SCCPDH (UniProt Q8NBX0),inactive: 0.216
12,RRP9 (UniProt O43818),inactive: 0.236
13,SCG3 (UniProt Q8WXD2),active: 0.6
14,SEC23A (UniProt Q15436),inactive: 0.042
15,RRP12 (UniProt Q5JTH9),inactive: 0.161
16,RSRC1 (UniProt Q96IZ7),inactive: -0.062
17,SASH1 (UniProt O94885),inactive: -0.29
